From publication PMC7618248, “VEL-dependent polymerization maintains the chromatin association of Polycomb proteins for the switch to epigenetic silencing” (Molecular cell, 2025) come the findings set out here.

Chains of the proteins cited; added tags and fusions are not shown. Lines headed by an entry give the natural chain unless they say otherwise; changes in a name come on top.
UniProt Q9FIE3: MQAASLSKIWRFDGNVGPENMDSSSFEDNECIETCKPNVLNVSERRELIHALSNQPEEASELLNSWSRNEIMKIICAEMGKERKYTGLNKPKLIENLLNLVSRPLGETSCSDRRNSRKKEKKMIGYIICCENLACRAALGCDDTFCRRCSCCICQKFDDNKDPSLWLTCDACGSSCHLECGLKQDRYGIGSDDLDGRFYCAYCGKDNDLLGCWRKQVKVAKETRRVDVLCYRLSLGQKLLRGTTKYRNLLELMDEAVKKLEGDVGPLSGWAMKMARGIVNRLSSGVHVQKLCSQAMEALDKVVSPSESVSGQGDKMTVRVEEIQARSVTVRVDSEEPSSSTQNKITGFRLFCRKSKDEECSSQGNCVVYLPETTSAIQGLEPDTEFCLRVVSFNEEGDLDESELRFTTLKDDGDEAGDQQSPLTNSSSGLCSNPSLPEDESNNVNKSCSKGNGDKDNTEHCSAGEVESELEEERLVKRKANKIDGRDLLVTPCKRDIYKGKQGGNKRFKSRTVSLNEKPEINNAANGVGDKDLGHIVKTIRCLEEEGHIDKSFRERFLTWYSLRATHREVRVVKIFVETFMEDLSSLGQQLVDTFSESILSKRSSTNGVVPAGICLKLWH
UniProt O22467: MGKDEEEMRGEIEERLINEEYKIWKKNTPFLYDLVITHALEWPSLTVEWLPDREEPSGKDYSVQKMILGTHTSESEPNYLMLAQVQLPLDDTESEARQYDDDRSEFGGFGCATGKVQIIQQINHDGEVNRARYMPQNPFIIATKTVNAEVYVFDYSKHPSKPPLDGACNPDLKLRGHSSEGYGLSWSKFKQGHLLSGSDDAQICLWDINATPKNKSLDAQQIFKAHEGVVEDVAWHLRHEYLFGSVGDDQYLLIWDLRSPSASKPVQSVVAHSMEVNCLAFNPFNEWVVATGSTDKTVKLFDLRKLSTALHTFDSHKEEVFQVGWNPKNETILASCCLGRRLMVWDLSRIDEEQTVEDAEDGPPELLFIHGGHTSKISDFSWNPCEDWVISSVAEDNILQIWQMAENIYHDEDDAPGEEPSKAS

No constants are given. Whether binding was seen depends on the method and setting. Binding seen in cells or lysates may run through a third protein. These calls come from enrichment with a bait or labelling near it, and not all partners need be listed. For some of these results: No binding means not detected with the bait.

Holding throughout (experiment): affinity purification with mass spectrometry; native GFP-Trap co-IP from total protein extracts of seedlings vernalized for 6 weeks; IP buffer 50 mM Tris-HCl pH 7.5, 150 mM NaCl, 0.5% NP-40, 1% Triton-X, with PhosSTOP; enrichment against non-transgenic Col-FRI; n = 3
The target of assay [1] is VIN3-GFP ΔVEL (Arabidopsis thaliana) (UniProt Q9FIE3).
The target in assay [2] is T1, VRN5-SYFP2 wild type (Arabidopsis thaliana) (UniProt Q9LHF5).
T1 sequence: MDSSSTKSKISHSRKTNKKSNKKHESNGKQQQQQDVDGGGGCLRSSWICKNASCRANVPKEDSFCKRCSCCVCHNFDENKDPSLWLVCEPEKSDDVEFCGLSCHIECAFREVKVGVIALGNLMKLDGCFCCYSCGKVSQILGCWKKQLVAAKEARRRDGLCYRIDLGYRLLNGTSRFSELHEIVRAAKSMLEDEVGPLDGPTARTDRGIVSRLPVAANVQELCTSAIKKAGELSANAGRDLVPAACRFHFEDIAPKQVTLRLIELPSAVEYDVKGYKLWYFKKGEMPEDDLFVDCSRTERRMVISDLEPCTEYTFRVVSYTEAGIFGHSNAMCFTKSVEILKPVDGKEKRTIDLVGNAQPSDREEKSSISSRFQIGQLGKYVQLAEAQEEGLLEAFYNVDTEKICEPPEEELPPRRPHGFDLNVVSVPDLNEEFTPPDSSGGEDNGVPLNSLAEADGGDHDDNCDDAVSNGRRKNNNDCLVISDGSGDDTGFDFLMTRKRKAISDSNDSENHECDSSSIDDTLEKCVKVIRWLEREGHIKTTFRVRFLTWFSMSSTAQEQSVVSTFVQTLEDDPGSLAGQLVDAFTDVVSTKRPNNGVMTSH

Assay [3] concerns the target VRN5-SYFP2 ΔVEL (Arabidopsis thaliana) (UniProt Q9LHF5).
Assay [4] concerns the target VIN3-GFP wild type (Arabidopsis thaliana) (UniProt Q9FIE3).

As to MSI1 (from UniProt O22467 1-424), the binding entry is on record as “no binding” in assay [1], “binds” in assay [2] and “binds” in assay [3].

As for “VIN3 (endogenous) (from UniProt Q9FIE3 1-620)”, in assay [2], the binding result is “binds”.

B1: FIE (protein, UniProt Q9LT47 1-369)
chain: MSKITLGNESIVGSLTPSNKKSYKVTNRIQEGKKPLYAVVFNFLDARFFDVFVTAGGNRITLYNCLGDGAISALQSYADEDKEESFYTVSWACGVNGNPYVAAGGVKGIIRVIDVNSETIHKSLVGHGDSVNEIRTQPLKPQLVITASKDESVRLWNVETGICILIFAGAGGHRYEVLSVDFHPSDIYRFASCGMDTTIKIWSMKEFWTYVEKSFTWTDDPSKFPTKFVQFPVFTASIHTNYVDCNRWFGDFILSKSVDNEILLWEPQLKENSPGEGASDVLLRYPVPMCDIWFIKFSCDLHLSSVAIGNQEGKVYVWDLKSCPPVLITKLSHNQSKSVIRQTAMSVDGSTILACCEDGTIWRWDVITK
With B1, the binding entry in assay [1] is “no binding”; in assay [2], “binds”; in assay [3] it was “binds”.

B2: SWN (protein, UniProt Q9ZSM8 1-856)
chain: MVTDDSNSSGRIKSHVDDDDDGEEEEDRLEGLENRLSELKRKIQGERVRSIKEKFEANRKKVDAHVSPFSSAASSRATAEDNGNSNMLSSRMRMPLCKLNGFSHGVGDRDYVPTKDVISASVKLPIAERIPPYTTWIFLDRNQRMAEDQSVVGRRQIYYEQHGGETLICSDSEEEPEPEEEKREFSEGEDSIIWLIGQEYGMGEEVQDALCQLLSVDASDILERYNELKLKDKQNTEEFSNSGFKLGISLEKGLGAALDSFDNLFCRRCLVFDCRLHGCSQPLISASEKQPYWSDYEGDRKPCSKHCYLQLKAVREVPETCSNFASKAEEKASEEECSKAVSSDVPHAAASGVSLQVEKTDIGIKNVDSSSGVEQEHGIRGKREVPILKDSNDLPNLSNKKQKTAASDTKMSFVNSVPSLDQALDSTKGDQGGTTDNKVNRDSEADAKEVGEPIPDNSVHDGGSSICQPHHGSGNGAIIIAEMSETSRPSTEWNPIEKDLYLKGVEIFGRNSCLIARNLLSGLKTCLDVSNYMRENEVSVFRRSSTPNLLLDDGRTDPGNDNDEVPPRTRLFRRKGKTRKLKYSTKSAGHPSVWKRIAGGKNQSCKQYTPCGCLSMCGKDCPCLTNETCCEKYCGCSKSCKNRFRGCHCAKSQCRSRQCPCFAAGRECDPDVCRNCWVSCGDGSLGEAPRRGEGQCGNMRLLLRQQQRILLGKSDVAGWGAFLKNSVSKNEYLGEYTGELISHHEADKRGKIYDRANSSFLFDLNDQYVLDAQRKGDKLKFANHSAKPNCYAKVMFVAGDHRVGIFANERIEASEELFYDYRYGPDQAPVWARKPEGSKKDDSAITHRRARKHQSH
B2: the binding result is “no binding” in assay [1], “binds” in assay [2] and “binds” in assay [3].

B3: VEL1 (protein, UniProt Q9SUM4 1-714)
chain: MDSSLDGAAGDSSKCSEMSVDEKRQLVYELSKQSHLAAEVLQAWSRQEILQILCAEMGKERKYTGLTKVKIIETLLKIVSEKNSGECEGKKRDSDCLPIQRNTKRQRKVDNPSRYVIPATNIVTSNNASGSCSSVNTKGESTTIYCKNLACRAVLRQEDSFCRRCSCCICRKYDDNKDPSLWLTCSSDPPFEGESCGFSCHLECAFNTEKSGLGKDKQSEGCCFYCVSCGKANSLLECWKKQLTIAKETRRVEVLCYRLFLVQKLLKSSTKYRNLCEVVDEAVKTLEADVGPLTGLPMKMGRGIVNRLHSGPDVQKLCSSALESLETIATTPPDVAALPSPRSSKMQQDCSYVLSNEISADTATTGSTKIRFEDVNATSLTVVLASNEIPSPPNIVHYSIWHRKVPEKDYPEKSTCTLFIPNTRFVVSGLAPASEYCFKVVSYSGTREMGVDEINVLTRSAEEGANCSSAVERSVSPLTNCSTLSSNPSSVEAESNNDYIVPKKPSSKNEDNNSPSVDESAAKRMKRTTDSDIVQIEKDVEQIVLLDDEEQEAVLDKTESETPVVVTTKSLVGNRNSSDASLPITPFRSDEIKNRQARIEISMKDNCNNGDHSANGGTESGLEHCVKIIRQLECSGHIDKNFRQKFLTWYSLRATSQEIRVVKIFIDTFIDDPMALAEQLIDTFDDRVSIKRSAVGGSGASAVVPSGFCMKLWH
In the case of B3, the binding entry in assay [1] is “no binding”; in assay [2], “binds”; in assay [4], “binds”; in assay [3], “binds”.

B4: VRN5 (endogenous) (protein, UniProt Q9LHF5 1-602)
chain: MDSSSTKSKISHSRKTNKKSNKKHESNGKQQQQQDVDGGGGCLRSSWICKNASCRANVPKEDSFCKRCSCCVCHNFDENKDPSLWLVCEPEKSDDVEFCGLSCHIECAFREVKVGVIALGNLMKLDGCFCCYSCGKVSQILGCWKKQLVAAKEARRRDGLCYRIDLGYRLLNGTSRFSELHEIVRAAKSMLEDEVGPLDGPTARTDRGIVSRLPVAANVQELCTSAIKKAGELSANAGRDLVPAACRFHFEDIAPKQVTLRLIELPSAVEYDVKGYKLWYFKKGEMPEDDLFVDCSRTERRMVISDLEPCTEYTFRVVSYTEAGIFGHSNAMCFTKSVEILKPVDGKEKRTIDLVGNAQPSDREEKSSISSRFQIGQLGKYVQLAEAQEEGLLEAFYNVDTEKICEPPEEELPPRRPHGFDLNVVSVPDLNEEFTPPDSSGGEDNGVPLNSLAEADGGDHDDNCDDAVSNGRRKNNNDCLVISDGSGDDTGFDFLMTRKRKAISDSNDSENHECDSSSIDDTLEKCVKVIRWLEREGHIKTTFRVRFLTWFSMSSTAQEQSVVSTFVQTLEDDPGSLAGQLVDAFTDVVSTKRPNNGVMTSH
In the case of B4, the binding result in assay [1] is “no binding”; in assay [4] it was “binds”.

B5: CURLY LEAF (CLF) (protein, UniProt P93831 1-902)
chain: MASEASPSSSATRSEPPKDSPAEERGPASKEVSEVIESLKKKLAADRCISIKKRIDENKKNLFAITQSFMRSSMERGGSCKDGSDLLVKRQRDSPGMKSGIDESNNNRYVEDGPASSGMVQGSSVPVKISLRPIKMPDIKRLSPYTTWVFLDRNQRMTEDQSVVGRRRIYYDQTGGEALICSDSEEEAIDDEEEKRDFLEPEDYIIRMTLEQLGLSDSVLAELASFLSRSTSEIKARHGVLMKEKEVSESGDNQAESSLLNKDMEGALDSFDNLFCRRCLVFDCRLHGCSQDLIFPAEKPAPWCPPVDENLTCGANCYKTLLKSGRFPGYGTIEGKTGTSSDGAGTKTTPTKFSSKLNGRKPKTFPSESASSNEKCALETSDSENGLQQDTNSDKVSSSPKVKGSGRRVGRKRNKNRVAERVPRKTQKRQKKTEASDSDSIASGSCSPSDAKHKDNEDATSSSQKHVKSGNSGKSRKNGTPAEVSNNSVKDDVPVCQSNEVASELDAPGSDESLRKEEFMGETVSRGRLATNKLWRPLEKSLFDKGVEIFGMNSCLIARNLLSGFKSCWEVFQYMTCSENKASFFGGDGLNPDGSSKFDINGNMVNNQVRRRSRFLRRRGKVRRLKYTWKSAAYHSIRKRITEKKDQPCRQFNPCNCKIACGKECPCLLNGTCCEKYCGCPKSCKNRFRGCHCAKSQCRSRQCPCFAADRECDPDVCRNCWVIGGDGSLGVPSQRGDNYECRNMKLLLKQQQRVLLGISDVSGWGAFLKNSVSKHEYLGEYTGELISHKEADKRGKIYDRENCSFLFNLNDQFVLDAYRKGDKLKFANHSPEPNCYAKVIMVAGDHRVGIFAKERILAGEELFYDYRYEPDRAPAWAKKPEAPGSKKDENVTPSVGRPKKLA
For B5, the binding entry in assay [1] was “no binding”; in assay [2], “binds”; in assay [3], “binds”.

B6: VRN2 (protein, UniProt Q8W5B1 1-440)
chain: MCRQNCRAKSSPEEVISTDENLLIYCKPVRLYNIFHLRSLGNPSFLPRCLNYKIGAKRKRKSRSTGMVVFNYKDCNNTLQRTEVREDCSCPFCSMLCGSFKGLQFHLNSSHDLFEFEFKLLEEYQTVNVSVKLNSFIFEEEGSDDDKFEPFSLCSKPRKRRQRGGRNNTRRLKVCFLPLDSPSLANGTENGIALLNDGNRGLGYPEATELAGQFEMTSNIPPAIAHSSLDAGAKVILTTEAVVPATKTRKLSAERSEARSHLLLQKRQFYHSHRVQPMALEQVMSDRDSEDEVDDDVADFEDRQMLDDFVDVNKDEKQFMHLWNSFVRKQRVIADGHISWACEVFSRFYEKELHCYSSLFWCWRLFLIKLWNHGLVDSATINNCNTILENCRNTSVTNNNNNSVDHPSDSNTNNNNIVDHPNDIKNKNNVDNKDNNSRDK
Regarding B6, the binding result is on record as “no binding” in assay [1], “binds” in assay [2] and “binds” in assay [3].
